This assay has as its target morphine-compound cerebral receptors. Nature of the assay: Fixation on morphine-compound cerebral receptors (displacement of tritiated etorphin). In kind it is binding. The conditions noted are these: rat-brain homogenate, 1 mg/ml protein, 30 minutes at 35° C; read-out: CI50 (displacement of tritiated etorphin). The procedure: It is sought to determine the affinity of the products under study by means of their capacity for displacement of tritiated etorphin in a rat-brain homogenate (containing 1 mg/ml of protein) over a period of 30 minutes at 35° C. This test consists in determining the value CI50 corresponding to the concentration of products which are capable of inhibiting 50% of the specific radioactive ligand bond.

Structures are written as SMILES.

The text below walks through data of patent US4382935A, “Analgesic drug containing a derivative of benzylpiperazine” (Buzas; Andre, priority 1980, dated 1983).

Consider `CN1CC[C@]23c4c5ccc(O)c4O[C@H]2[C@@H](O)C=C[C@H]3[C@H]1C5` [morphine], for which the IC50 came to 179 nM.
